# Assay results: US20190201494A1, “COMPOSITIONS AND METHODS FOR TREATING NICOTINE WITHDRAWAL” (STC UNM, priority 2016, published 2019)
# “Also recorded” adds a separate entry of the source.
# Tests used:
# [1] = tested on: overnight abstinent smokers; assay: Blood measurements: insulin, glucose, C-peptide, non-esterified fatty acids (Example 1); assay type: in vivo, human; conditions: 60 IU intranasal vs placebo
# Protocol: Blood measurements: Blood samples were analyzed for measurements of insulin, glucose, C-peptide, and non-esterified fatty acids.
# Serum insulin was analyzed on the Immulite 1000 immunoassay system (Siemens Healthcare GmbH, Erlangen, Germany). This is a solid-phase, enzyme-labeled chemiluminescent immunometric assay. The solid phase (bead) was coated with monoclonal murine anti-insulin antibody. The liquid phase consisted of alkaline phosphatase (bovine calf intestine) conjugated to polyclonal sheep anti-insulin antibody and alkaline phosphatase (bovine calf intestine) conjugated to monoclonal murine anti-insulin antibody. The patient sample and the reagent were incubated together with the coated bead for 60 minutes. […]
# Serum glucose was performed on the ACE ALERA system (Alfa Wassermann Diagnostic Technologies, S.p.A., Bologna, Italy). An increase in absorbance of NADH is directly proportional to glucose concentration, and was measured bichromatically at 340 nm/378 nm. […]
# Blood samples were collected at 12:20, 13:00, 13:40, and 14:10 and analyzed for non-esterified fatty acids using an AU 480 chemistry analyzer (Beckman Coulter, Inc., Brea, Calif.) using a NEFA-HR(2) kit (Wako Chemicals USA, Inc., Cape Charles, Va.). […]
# [2] = tested on: overnight abstinent smokers; assay: Cardiovascular measures (blood pressure, heart rate) during Trier Social Stress Test (Example 1); assay type: in vivo, human
# [3] = 60 IU vs placebo, Trier Social Stress Test
substance,measurement,setting,value
"intranasal insulin: bulk human Regular insulin (U100 Novolin R, Novo Nordisk US), 100 IU/ml, six nasal sprays delivering 60 IU","C-peptide levels, effect of treatment",[1],did not differ; also recorded: no detection of treatment effect
same,"Non-esterified fatty acids, effect of treatment",[1]; increase over time,did not differ; also recorded: occurred for both treatment groups
same,"Heart rate, effect of treatment",[2]; [3],treatment groups did not differ
same,"Systolic blood pressure, effect of treatment",[2]; [3],Main effect of treatment was not significant
same,"Diastolic blood pressure, treatment×time interaction","[2]; 60 IU vs placebo, Trier Social Stress Test, p≤0.05",The interaction was significant
same,"Diastolic blood pressure, interaction, b","[2]; SE(b)=0.27, z=−1.92, p≤0.05",−0.52
same,"Systolic blood pressure, treatment×time interaction, b","[2]; SE(b)=0.32, z=−1.46, p=0.14, not significant",−0.46
same,"Heart rate, treatment×time, b","[2]; SE(b)=1.03, z=−0.79, p=0.42",−0.81
same,"Diastolic blood pressure, main effect of treatment, b","[2]; SE(b)=2.58, z=1.80, p=0.07, not significant",4.64
same,"Systolic blood pressure, main effect of treatment, b","[2]; SE(b)=4.18, z=1.55, p=o.12",6.48
same,"Heart rate, treatment, b","[2]; SE(b)=4.23, z=0.00, p=0.99",0.01
